We go through 42 sequences from PMC7819943, “Rice protein-binding microarrays: a tool to detect cis-acting elements near promoter regions in rice”.

The chains behind the UniProt entries cited, without tags or fusion partners.
UniProt Q0JBA9, entry or part of it: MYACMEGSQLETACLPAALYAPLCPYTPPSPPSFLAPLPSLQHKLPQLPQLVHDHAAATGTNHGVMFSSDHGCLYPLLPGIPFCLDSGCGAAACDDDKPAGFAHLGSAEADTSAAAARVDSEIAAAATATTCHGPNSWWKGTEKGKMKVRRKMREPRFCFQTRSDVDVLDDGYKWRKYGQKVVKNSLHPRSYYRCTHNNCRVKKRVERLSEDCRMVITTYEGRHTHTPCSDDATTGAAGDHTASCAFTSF

The list shows a part of the results.

In this assay the target is OsWRKY34 (Oryza sativa, UniProt Q0JBA9 1-250). The experiment in a line: protein-binding microarray (RPBM); PBS, 2% BSA, 51.3 ng/ul salmon testes DNA, 50 uM zinc acetate, 200 nM TF, 25 C, 1 h; high values mean tight binding. Conditions: protein: recombinant; tags: N-terminal polyhistidine and DsRed monomer fusion (pET32a); label: CyDye5-dUTP incorporated in the synthesized complementary strand; 3' TTTTT single-stranded linker to array surface; dsDNA, one strand shown. A digest of the protocol: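 The binding signal is fluorescence intensity per feature, in arbitrary units, read on an Axon 4000B scanner. Polyhistidine- and DsRed-tagged transcription factors (N-terminal fusions) from E. coli BL21-CodonPlus were purified on Ni–NTA and applied at 200 nM for 1 h at 25 °C to a double-stranded, BSA-blocked custom Agilent array in buffer with 50 µM zinc acetate.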
With “CACCACACCACACCATACCACACCACGGCCATCTCGTCAGCGGAGTCACCTAGTGCAG”, the binding signal is 10400 fluorescence intensity (a.u.).

For “ACACAAGTTACACAATATAAAGCCTTCGTTACTGCACTTTCGGAGTCACCTAGTGCAG”, the binding signal is 8140 fluorescence intensity (a.u.).

Consider “GTCACTCACTTTCCTAATGGATTTGTAATATGTTCTCTCACGGAGTCACCTAGTGCAG”, for which the binding signal is 9180 fluorescence intensity (a.u.).

Regarding “CTGAAACTCTGATGAGTTTTTCAATGCTTCCATGTCTATTCGGAGTCACCTAGTGCAG”, the binding signal was 8660 fluorescence intensity (a.u.).

“TTGGGTACGATCCGTGTGCTTTGATATTTTGGCGTGCTTGCGGAGTCACCTAGTGCAG”: the binding signal was 8700 fluorescence intensity (a.u.).

With “GGGTTGATGTGTGGTGAAGGGTAGGTAATTTGTAGGAGTACGGAGTCACCTAGTGCAG”, the binding signal is 10800 fluorescence intensity (a.u.).

With “TTTCAGAGCTATTTGGCCTTTAATACACTTTCCTATTAAGCGGAGTCACCTAGTGCAG”, the binding signal is 8710 fluorescence intensity (a.u.).

Take “ATAGGGATGGGGCTACCGGATTTTTTTTCCGGAAGAGATCCGGAGTCACCTAGTGCAG”: the binding signal is 9140 fluorescence intensity (a.u.).

Regarding “CACCGCGGACGCTGTCGCCGTCGTCTTCGTCGCCGTCCCTCGGAGTCACCTAGTGCAG”, the binding signal was 9480 fluorescence intensity (a.u.).

As to “ATTGGCATGGAGTCGTCTCTTGTGGTTGCATTTTATGGATCGGAGTCACCTAGTGCAG”, the binding signal was 9440 fluorescence intensity (a.u.).

With “CTCTTTCTTTCTTTCTTTCTTTCTTTTTTTTTTATTAAGGCGGAGTCACCTAGTGCAG”, the binding signal is 10700 fluorescence intensity (a.u.).

As to “TCATCCATGGCTGCTTCTGCCGCTGCTATCCGATAATCCGCGGAGTCACCTAGTGCAG”, the binding signal was 10700 fluorescence intensity (a.u.).

With “CCATCCTTCGTCGGCATTCCAAAACATCTATTTCTCCTGCCGGAGTCACCTAGTGCAG”, the binding signal was 9990 fluorescence intensity (a.u.).

With “TTACCAGTGACTAATTTTTTTCCTTCTTTTTTACTTTTCGCGGAGTCACCTAGTGCAG”, the binding signal was 10700 fluorescence intensity (a.u.).

As for “ATGATAGCAATTCTCTACCCTTTTCAACTGGTTCTTGTCGCGGAGTCACCTAGTGCAG”, the binding signal was 8570 fluorescence intensity (a.u.).

As for “ACATTGCCCGTGCCCGCTGTGTTATGTACTAGCTGTACAGCGGAGTCACCTAGTGCAG”, the binding signal was 8080 fluorescence intensity (a.u.).

On to “TCTTTGTTATAATTATGGGGTTGGTTTTATTCGTTTTCGACGGAGTCACCTAGTGCAG”, for which the binding signal is 21900 fluorescence intensity (a.u.).

On to “GTATACACCTCTAATTGCGATTTTATATTTTAATTAATTACGGAGTCACCTAGTGCAG”, for which the binding signal was 8310 fluorescence intensity (a.u.).

As for “GTTTGGGTTGAAGTTTTACAGCCAAAGTCCATCGTCTCGCCGGAGTCACCTAGTGCAG”, the binding signal was 8670 fluorescence intensity (a.u.).

As to “TACATGTTTCCCTGATTTTCTTTCCTCGAAACATAGATTTCGGAGTCACCTAGTGCAG”, the binding signal is 8990 fluorescence intensity (a.u.).

As to “GACTCAACCGCTCATGTTGACCGGCCATTTTTTTTAAAGACGGAGTCACCTAGTGCAG”, the binding signal is 8930 fluorescence intensity (a.u.).

Consider “ACAGTTTGTTAGCCAGCCATTTGATTGTGACTTGCCATATCGGAGTCACCTAGTGCAG”, for which the binding signal was 8520 fluorescence intensity (a.u.).

Consider “GTTGGAGGGGTGTTTTTTTGGTCGGAGAAAGCGCGACGACCGGAGTCACCTAGTGCAG”, for which the binding signal was 8810 fluorescence intensity (a.u.).

On to “CAATTGATGGCTACGTCGCTTTTGTCAACTCCTTATTTTCCGGAGTCACCTAGTGCAG”, for which the binding signal was 11100 fluorescence intensity (a.u.).

Regarding “GTCCACATGTTGTATTTTTTATATTATCTTGTTATTAGTACGGAGTCACCTAGTGCAG”, the binding signal is 9110 fluorescence intensity (a.u.).

As to “GTACCCTTGAATTTTACTCAATCTCCTGGATACCCCTGAACGGAGTCACCTAGTGCAG”, the binding signal is 8140 fluorescence intensity (a.u.).

For “CAAATCACGCCTCCATCGCCATCCGCTCTCATCGCCGATCCGGAGTCACCTAGTGCAG”, the binding signal is 10800 fluorescence intensity (a.u.).

For the sequence “TGTAGTTACCTAATTTGGTCTTGTAAATATTATTATTATACGGAGTCACCTAGTGCAG”, the binding signal is 8060 fluorescence intensity (a.u.).

As to “TGTGTGCGTGTGTTGTGACTTATGATGTGTTTCTTAAGAACGGAGTCACCTAGTGCAG”, the binding signal is 10100 fluorescence intensity (a.u.).

For the sequence “TTGTACTACTATTTCTTCATGTTACATAATTCTCCTTGTTCGGAGTCACCTAGTGCAG”, the binding signal is 8540 fluorescence intensity (a.u.).

For “TTACTTGTGTGTTTGTGTGTGTTATATATATATATATATACGGAGTCACCTAGTGCAG”, the binding signal was 9120 fluorescence intensity (a.u.).

As to “CTTCTACTGCTTTACGTGTCACTGCCTATAATAGTACTACCGGAGTCACCTAGTGCAG”, the binding signal is 11900 fluorescence intensity (a.u.).

Turning to “CAGCTGTTCGAACTCGGTGCTTGATAGTTTTTTTTTTCTTCGGAGTCACCTAGTGCAG”, the binding signal is 8790 fluorescence intensity (a.u.).

On to “AACGTTTGACCACTCGTCTTATTCAATTTTTTTTTGTAAACGGAGTCACCTAGTGCAG”, for which the binding signal was 9730 fluorescence intensity (a.u.).

On to “GGGTTTTTTATATACTGGTAAATATTCGCTACCGTATTCGCGGAGTCACCTAGTGCAG”, for which the binding signal is 9130 fluorescence intensity (a.u.).

As for “GTTCCTTTGGTGTCACATTTGCAGACAATGCTGGAGTCATCGGAGTCACCTAGTGCAG”, the binding signal is 8380 fluorescence intensity (a.u.).

“GATATACAGCATCAATTCAGCCCAACCATAACACAACTCCCGGAGTCACCTAGTGCAG”: the binding signal is 10300 fluorescence intensity (a.u.).

Consider “CCGTTGGTGTCATAACGTGTCTATTGGTGTCTGTATGCTACGGAGTCACCTAGTGCAG”, for which the binding signal was 8380 fluorescence intensity (a.u.).

Turning to “GTGTTAGTTTCTCTTTGTGCTCTGTGATACATTCAAGATGCGGAGTCACCTAGTGCAG”, the binding signal is 9490 fluorescence intensity (a.u.).

Take “GAGTTTGGTTCTTCCTATTCAGATACATTGTTTCCTGCATCGGAGTCACCTAGTGCAG”: the binding signal is 8260 fluorescence intensity (a.u.).

For the sequence “GGGGTTACATTCTTCCTTGAAATTGCATTCTAAATACTATCGGAGTCACCTAGTGCAG”, the binding signal is 11800 fluorescence intensity (a.u.).

For “GGCAACCCCAACCTCGCGCGGCCCACCGCGTTTCATTTCCCGGAGTCACCTAGTGCAG”, the binding signal was 8440 fluorescence intensity (a.u.).
